{"source": "patent US7820709B2", "about": "“N-phenylpyrazole derivatives as pesticides” (Merial Limited, priority 2004, dated 2010)", "tested_on": "Ctenocephalides felis (Cat flea)", "assay": "METHOD A: screening method to test systemicity against Ctenocephalides felis (artificial dog test, treated bovine blood)", "assay_type": "in vivo", "conditions": "test concentration of 5 ppm or less in bovine blood; 10 adults; assessment at 24 and 48 hours after application", "note": "Some of these results come from one statement about several compounds together."}
{"molecule": "CSCCOC(=O)N(C)c1c([S+]([O-])C(F)(F)F)c(C#N)nn1-c1c(Cl)cc(C(F)(F)F)cc1Cl", "note": "(stereo not shown) [Compound 24-02, 2-Methylthioethyl[1-(2,6-dichloro-4-trifluoromethylphenyl)-3-cyano-4-trifluoromethylsulfinylpyrazol-5-yl]-N-methylcarbamate]", "values": [{"measurement": "control of Ctenocephalides felis", "value": "at least 90%"}]}
